From PubChem BioAssay AID1347421 (Sanford-Burnham Center for Chemical Genomics, 2020) come the findings set out here.

Protein sequences, listed by entry. Tags and fused reporters are not part of them. Lines headed by an entry give the natural chain unless they say otherwise; changes in a name come on top.
UniProt O00391: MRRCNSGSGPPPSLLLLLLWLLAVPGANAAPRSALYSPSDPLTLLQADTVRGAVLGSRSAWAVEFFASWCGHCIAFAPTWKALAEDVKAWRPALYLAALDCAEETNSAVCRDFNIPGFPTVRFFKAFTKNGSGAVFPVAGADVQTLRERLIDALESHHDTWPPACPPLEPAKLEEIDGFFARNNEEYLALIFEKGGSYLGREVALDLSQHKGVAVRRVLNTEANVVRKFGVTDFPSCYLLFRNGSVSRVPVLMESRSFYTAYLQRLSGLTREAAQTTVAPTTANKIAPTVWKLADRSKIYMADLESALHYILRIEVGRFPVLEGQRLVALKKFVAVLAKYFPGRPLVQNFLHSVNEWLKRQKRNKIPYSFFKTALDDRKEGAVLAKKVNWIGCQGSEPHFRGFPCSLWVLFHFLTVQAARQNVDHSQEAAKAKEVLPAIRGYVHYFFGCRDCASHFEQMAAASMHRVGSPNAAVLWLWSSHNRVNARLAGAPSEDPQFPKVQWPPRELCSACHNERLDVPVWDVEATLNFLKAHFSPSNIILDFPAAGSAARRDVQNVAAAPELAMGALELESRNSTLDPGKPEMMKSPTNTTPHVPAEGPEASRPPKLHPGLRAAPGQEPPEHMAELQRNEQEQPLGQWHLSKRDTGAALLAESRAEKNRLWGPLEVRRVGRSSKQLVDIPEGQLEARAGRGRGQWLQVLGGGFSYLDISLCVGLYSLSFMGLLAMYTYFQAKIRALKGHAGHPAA

The full ranking holds about 1,500 compounds; the median of “activity” is about 2, and the lowest 2% start at about -18. This is one part of the list. Active and inactive are the calls of the source.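 The calls were made as follows: active = inhibition of at least 40% at 10 µM; inconclusive = no clear call, values can overlap the other calls; inactive = the rest.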

In this test the target is Sulfhydryl oxidase 1 (Homo sapiens) (UniProt O00391). Description: QSOX1 enzyme inhibitors, confirmation, biochemical, ROS-Glo luminescence, single concentration (AID 1347421).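 Also: 0% = DMSO wells with enzyme and 100% = wells lacking QSOX1 enzyme.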 As to conditions: recombinant hQSOX1, RNase A substrate, ROS-Glo H2O2 luminescence; at 10 µM.
Regarding `Fc1ccccc1-c1noc2c1CN(Cc1cccnc1)CC2`, the activity was inactive: -1.3%.
With `Cc1nc(CC(=O)N2CCCC(CCC(=O)N3CCN(c4ccccn4)CC3)C2)cs1` (stereo not given), the activity was inactive: -2.5%.
The same measure for `Cc1ccc(CNc2nnnn2C)s1`: 1.9%.
As for `O=C(CC1Nc2ccccc2NC1=O)NC1CCCC1` (stereo not given), the figure is 5.9%; as for `O=C1Nc2ccccc2Oc2ccc(S(=O)(=O)N3CCOCC3)cc21`, inactive: -1.3%; as for `CN1CCC(NC2CC(=O)N(C3CCCCCC3)C2)CC1` (stereo not given), 0.2%.
On to `CCN(Cc1cnn(C)c1)C(=O)c1cc(COc2ccc(F)cc2F)on1`, for which the activity was found to be 7.7%.
The same measure for `CC1CN(c2ccccc2)CCN1c1nc2nonc2nc1N1CCOCC1` (stereo not given): 5.4%.
The same measure for `CSc1ccccc1C(=O)N1CCOC(CCN(C)C)C1` (stereo not given): inactive: -1%.
The same measure for `COc1cccc2c1OCC(CNC1CCCN(c3ncccn3)C1)=C2` (stereo not given): 7.2%.
As to `Cc1nc2ccc(Cl)cn2c1CN1CCOC(Cc2ccccc2)C1` (stereo not given), the activity was 7.9%.
The same measure for `O=C(Nc1ccc(N2CCCC2=O)cc1)c1cncc(Br)c1`: 2.1%; for `C/C(=C\c1ccco1)CNCc1cccnc1N1CCOCC1`: inactive: -3.5%.
As for `CCS(=O)(=O)c1ncc(CN2CCN(c3cnccn3)CC2)n1CCc1ccccc1`, the activity came to 6.2%.
As for `Cc1occc1C(=O)Nc1ccc([N+](=O)[O-])cn1`, the figure is 17.1%; as for `c1ccc(CCCc2nn3c(-c4cccnc4)nnc3s2)cc1`, 3%.
Regarding `COc1cc(Cl)c(CN2CC[C@@H](N3CCN(C)CC3)[C@H](O)C2)cc1OC`, the activity was inactive: -4.5%.
As for `COc1ccc(CNCCN(C)C)cc1OCC(O)CN(C)C(C)C` (stereo not given), the figure is 5.8%; as for `CS(=O)(=O)Nc1ccccc1-c1nc2ccccc2[nH]c1=O`, inactive: -9.2%.
`COc1cccc(CN2CCN(Cc3ccc(Cl)cc3)CC2CCO)c1` (stereo not given): the activity is 2.1%.
Turning to `CN1CCC(N(C)C(=O)CCC2CCCN(Cc3c(F)cccc3F)C2)CC1` (stereo not given), the activity was determined as 5.4%.
In the case of `COCCn1c(CN2CCN(C)C(C)C2)cnc1S(=O)(=O)CC(C)(C)C` (stereo not given), the activity was 22%.
The same measure for `NC(=O)CCC(=O)N1CCOC(Cc2cccc(F)c2)C1` (stereo not given): 5.1%.
For the molecule `COc1ccc(S(=O)(=O)N2CCC(CO)(Cc3ccccc3)CC2)cc1OC`, the activity is inactive: -1.9%.
As for `O=C(CCC1CCN(C(=O)CSc2ccccn2)CC1)NCC1CCCO1` (stereo not given), the figure is 2.6%.
The same measure for `Clc1cccc(N2CCN(C3CCCN(C4CCSCC4)C3)CC2)c1` (stereo not given): 4%; for `Clc1ccc(-c2ccc(CNc3nn[nH]n3)o2)cc1`: inactive: -1.2%.
Turning to `O=C(CCC1CCCN(Cc2ccc3cc(Cl)ccc3n2)C1)N1CCCC1` (stereo not given), the activity stood at 4.3%.
Take `Cc1noc(-c2ccc(NCc3ccccc3-n3cncn3)nc2)n1`: the activity stood at 15%.
For `COc1ccc(CN2CCCC(Nc3ccc(F)c(F)c3)C2)c(O)c1` (stereo not given), the activity was inactive: -1%.
As for `COc1cc(CNCc2ccc(F)cc2)ccc1OCC(O)CN1CCOCC1` (stereo not given), the figure is 2.4%.
The same measure for `COc1cccc(CNCCCSC)c1OCC(O)CN1CCOCC1` (stereo not given): 2.5%.
As for `CN(Cc1ccccc1)C1CCCN(C2CCC2)C1` (stereo not given), the figure is 1%; as for `Cc1ccc(S(=O)(=O)N2CCCCCC2)cc1C(=O)NC(C)C`, inactive: -15.8%; as for `Cc1ccc(CN(C)CC2(O)CCCN(Cc3ccccc3F)C2=O)cc1` (stereo not given), 4.8%.
With `O=C(CCc1nnc(-c2ccc3c(c2)OCO3)o1)NCC1CC12CCCCC2` (stereo not given), the activity is inactive: 0%.
In the case of `c1cc(CN2CCc3[nH]nc(-c4ccc5c(c4)OCO5)c3C2)co1`, the activity stood at 3.8%.
For the molecule `COc1cc(CNCc2cnc(C)cn2)ccc1OCC(O)CN1CCCC1` (stereo not given), the activity was 3.7%.
Turning to `COc1ccccc1CN1CC(C(=O)N(C)CCC2CCOCC2)CCC1=O` (stereo not given), the activity turned out to be 9.3%.
As to `CC(C)(C)CN1CC(NC(=O)C2CCOCC2)CC1=O` (stereo not given), the activity was 12.4%.
As for `CC(C)(C)CN1CCCC2(CCN(CCCn3cccn3)C2)C1=O` (stereo not given), the figure is 5.1%.
The same measure for `COc1ccc(OCC(O)CN2CCC(O)CC2)c(CNCCSC)c1` (stereo not given): 8.1%.
As for `Cc1nc(CNC(=O)CC2C(=O)NCCN2Cc2cccc(F)c2F)cs1` (stereo not given), the figure is 5.5%; as for `Cc1cccc(S(=O)(=O)NCC2CCN(c3cnn(C)c(=O)c3)C2)c1` (stereo not given), 5.8%.
For `CCS(=O)(=O)c1ncc(CN(C)CC(O)c2ccccc2)n1Cc1ccccc1` (stereo not given), the activity worked out at 6.9%.
As for `CCN(Cc1ccncc1)C1CCCN(S(=O)(=O)c2cc(C)c(Cl)cc2C)C1` (stereo not given), the figure is 2.3%.
With `CCOc1ccc(CN2CC[C@@H](N3CCCCCC3)[C@H](O)C2)cc1Cl`, the activity amounted to 6.1%.
As to `CN1CCN([C@@H]2CCN(Cc3ccc(OC4CCCC4)cc3)C[C@H]2O)CC1`, the activity was found to be 3.5%.
For the molecule `COc1cccc(-c2ccc(NC(=O)C3CCCN(C(=O)CNC(C)=O)C3)cc2)c1` (stereo not given), the activity was found to be 10.2%.
Take `COc1ccccc1C(=O)Nc1cccc(-c2cn3ccsc3n2)c1`: the activity worked out at 1.8%.
The same measure for `Cc1cc(Cl)ccc1NC(=S)NCc1cccnc1`: 5.1%; for `CN(CC1CCCN(CCc2ccc(F)cc2)C1)C(=O)CCCn1cncn1` (stereo not given): 3.3%; for `COc1ccc(N2CCN(C3CCCN(Cc4nc5ccccc5nc4C)C3)CC2)cc1` (stereo not given): 7.9%.
For the molecule `O=C(c1ccc(Oc2ccccc2)cc1)C1CCCN(C(=O)CCn2cncn2)C1` (stereo not given), the activity was determined as 5.3%.
The same measure for `CCC1c2cccn2CCN1Cc1cn[nH]c1-c1cc(OC)c(OC)c(OC)c1` (stereo not given): inactive: -2.5%; for `CC(C)NC(=O)c1ccoc1COc1ccccc1`: 0.9%; for `OC(COc1ccccc1CNCCN1CCCC1)CN1CCSCC1` (stereo not given): 7.1%.
The same measure for `Cc1cnn(Cc2ccc(F)cc2)c1NC(=O)Cn1nnc(C(C)(C)C)n1`: 1.9%; for `CC(=O)c1ccc(N2CCN(c3nncc(-c4cccc(F)c4)n3)CC2)cc1`: 39.1%; for `COCC(=O)Nc1ccc(S(=O)(=O)N2CCCC(C)C2)cc1` (stereo not given): 7.5%.
Regarding `O=C(NCc1ccoc1)c1ccc(C2CCCN2Cc2cc[nH]c(=O)c2)s1` (stereo not given), the activity is inactive: -4.3%.
The same measure for `COc1cccc(CC2CN(Cc3cnc(N(C)C)s3)CCO2)c1` (stereo not given): inactive: -3.2%.
The same measure for `CCc1ccccc1NC(=O)Nc1ccc(OC)cc1OC`: 8.2%; for `COc1ccc(OCC(O)CN2CCC(O)CC2)c(CNCC2CCOCC2)c1` (stereo not given): 7.5%.
`COc1cccc(NC(=O)CCC2CCN(C(=O)C3CC=CCC3)CC2)c1` (stereo not given): the activity stood at 5%.
As for `COc1ccc(N2C(=O)CC(N3CCOCC3)C2=O)cc1Cl` (stereo not given), the activity was inactive: -16.6%.
For the molecule `Cc1oc(-c2ccc(F)cc2)nc1CN(CCO)Cc1cccs1`, the activity came to 1.4%.
As for `Cc1ccc(S(=O)(=O)N2CCN(c3ccccc3)CC2)cc1C(N)=O`, the figure is 1.7%.
The same measure for `OC1CCN([C@@H]2CCN(CC3CCCCC3)C[C@H]2O)CC1`: 2.5%; for `CCCCC(=O)Nc1cccc2nc(C)ccc12`: inactive: -14.5%.
Regarding `O=C(c1ccco1)N1CCc2onc(-c3ccc(C(F)(F)F)cc3)c2C1`, the activity is 4.9%.
Turning to `COc1cc(CNCc2cnn(C)c2)ccc1OCC(O)CN1CCSCC1` (stereo not given), the activity is inactive: 0%.
The same measure for `CN(C)c1nc2nonc2nc1NCc1cccc2[nH]ccc12`: inactive: 0%; for `CSCCCN1CC[C@@H](N2CCN(c3ccccc3F)CC2)[C@H](O)C1`: 4.2%; for `CC(C)c1nc(C(=O)N2CCOC(Cc3ccccc3)C2)cs1` (stereo not given): 5.5%.
As to `c1ccc(-c2noc(CN3CCN(Cc4ccc5c(c4)OCO5)CC3)n2)cc1`, the activity came to 7.5%.
On to `O=C(c1nc2ccc(Cl)cn2c1CN1CCCC(O)C1)N1CCCCCCC1` (stereo not given), for which the activity was 7.7%.
As for `CSc1ncc(CNC2CCCN(CCCc3ccccc3)C2)cn1` (stereo not given), the figure is 6%; as for `O=C(c1cccc(-c2nnc(-c3ccccc3)o2)c1)N1CCN(C(=O)c2ccco2)CC1`, inactive: -3.9%; as for `O=C(c1ccoc1)N1CCC2(CCCN(Cc3cccc(F)c3F)C2)C1` (stereo not given), 3.7%.
As for `CN(CC1CCCN1C)C(=O)Cn1nnnc1CN1CCCCCC1` (stereo not given), the figure is 10.8%; as for `Fc1cccc(C2(CN3CCN(CCn4ccnc4)CC3)CCOC2)c1` (stereo not given), 1.2%; as for `CCC1CCCCN1S(=O)(=O)c1ccc(NS(C)(=O)=O)cc1` (stereo not given), inactive: -12.3%.
Turning to `CCC(=O)Oc1ccc(-c2nc(-c3cccc(OC)c3)no2)cc1`, the activity was active: 86.9%.
With `COc1ccc(CC2CN(Cc3ccco3)CCO2)cc1` (stereo not given), the activity was found to be 1.8%.
As for `CN(C)C(=O)Nc1ccc2c(c1)CCC2`, the figure is inactive: -6.3%.
As for `OCCC1CN(Cc2ccncc2)CCN1CC1CCCCC1` (stereo not given), the figure is 3.1%.
As for `O=C(CCC1CCN(C(=O)CSc2ccccc2)CC1)NCc1cccnc1`, the activity was found to be 4.2%.
As for `COc1ccc(CN(C)Cc2csc(C)n2)c(OCC(O)CN2CCCC2)c1` (stereo not given), the figure is 3.2%.
As for `CN(Cc1cccc(OCC(O)CN(C)C2CCCCC2)c1)Cc1ccno1` (stereo not given), the figure is 0.2%; as for `COc1ccc(CC2CN(C(=O)CCc3csc(N)n3)CCO2)cc1` (stereo not given), 0.6%.
As for `O=C1CC(NCc2cccc3c2OCO3)CN1Cc1ccccc1C(F)(F)F` (stereo not given), the figure is 5.2%.
For `CN(Cc1nccn1C)C1CCCN(CCCc2ccccc2)C1` (stereo not given), the activity is 2.7%.
For `Cc1nn2cc(CNCc3cccc(OCC(O)CN4CCOCC4)c3)nc2s1` (stereo not given), the activity was inactive: -1.8%.
As for `Cn1cc(CCNCc2cccc(OCC(O)CN3CCOCC3)c2)cn1` (stereo not given), the activity is 2.3%.
The same measure for `O=C1N(CC2CCCCC2)CCCC12CCN(C1CCSCC1)C2` (stereo not given): 1.8%; for `O=C1CCC(C(=O)N2CCCCO2)CN1CCCN1CCOCC1` (stereo not given): 6.6%.
As for `CSc1ncc(Cl)c(C(=O)NCCN2CCOCC2)n1`, the figure is inactive: -13.1%.
With `OC(COc1ccccc1CNCCOc1cccnc1)CN1CCSCC1` (stereo not given), the activity was inactive: -3.8%.
The same measure for `O=C(CCN1CCCO1)N1CCOC(CCc2ccccc2)C1` (stereo not given): inactive: -2.8%; for `COc1ccc(NC(=O)c2ccc3c(c2)NC(=O)CO3)cc1OC`: 2.1%; for `COc1cccc(CN2CCCC3(CCN(Cc4ccccn4)C3)C2)c1OC` (stereo not given): 7.4%.
The same measure for `O=C(O)c1ccc(S(=O)(=O)N2CCN(c3ccc(F)cc3)CC2)cc1`: 7.5%; for `CCOC(=O)C1(Cc2ccc(OC)cc2)CCN(C(=O)[C@@H]2CCCN2C(C)=O)CC1`: 3.8%.
Turning to `CC(=O)NCC(=O)N1CCOC(CCCc2ccccc2)C1` (stereo not given), the activity is 2.6%.
As to `O=C(Cc1ccsc1)N(CC1CCN(C2CCCC2)CC1)CC1CCCO1` (stereo not given), the activity was determined as 2.6%.
The same measure for `COc1cc(CN(C)Cc2csc(C)n2)ccc1OCC(O)CN(C)C(C)C` (stereo not given): inactive: -0.4%.
In the case of `O=C1CCC(C(=O)N2CCOC(Cc3ccccc3Cl)C2)=NN1` (stereo not given), the activity was 0.8%.
With `O=C(c1cn[nH]c1)N1CCCC(CCc2ccc(F)cc2F)C1` (stereo not given), the activity was determined as 7.5%.
Turning to `COc1ccc(CN2CCN(CC=C(C)C)C(CCO)C2)c(OC)c1C` (stereo not given), the activity is inactive: -1.3%.
